Data taken from publication PMC8772724.
These are yes or no findings as the source states them, for the method shown. Binding seen in cells or lysates may run through a third protein. Some results given as binding are weak or reduced against the parent protein; the word gives no strength.

By UniProt entry, the sequences of proteins in these tests, tags left out.
UniProt P55211: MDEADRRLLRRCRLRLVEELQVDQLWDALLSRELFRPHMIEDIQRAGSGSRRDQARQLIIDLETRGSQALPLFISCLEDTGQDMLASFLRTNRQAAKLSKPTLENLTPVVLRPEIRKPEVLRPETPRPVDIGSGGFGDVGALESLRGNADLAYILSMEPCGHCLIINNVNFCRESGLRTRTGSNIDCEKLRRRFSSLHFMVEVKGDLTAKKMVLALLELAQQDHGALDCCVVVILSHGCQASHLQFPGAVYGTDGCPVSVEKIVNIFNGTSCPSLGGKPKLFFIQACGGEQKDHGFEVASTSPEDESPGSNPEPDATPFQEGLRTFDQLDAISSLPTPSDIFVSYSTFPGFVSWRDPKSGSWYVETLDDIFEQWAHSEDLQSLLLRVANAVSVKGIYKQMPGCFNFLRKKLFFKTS
UniProt P99999: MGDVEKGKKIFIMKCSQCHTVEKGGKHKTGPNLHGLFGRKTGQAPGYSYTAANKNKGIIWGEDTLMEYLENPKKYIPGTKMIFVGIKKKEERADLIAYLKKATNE

Molecular target: procaspase-9 (human (endogenous in AC-16)) (UniProt P55211)
Experiment: co-IP; procaspase-9 immunoprecipitated (5 ug antibody, protein A/G agarose) from 750 ug non-denatured AC-16 lysate (20 mM Tris, 137 mM NaCl, 2 mM EDTA, 1% Nonidet P-40, 10% glycerol, pH 7.4); preys measured by tandem sandwich ELISA; cells under normoxia, hypoxia (18 h) or hypoxia-reoxygenation (18 h + 8 h), with miR-210 overexpression or miR-210-3p decoy/inhibitor; rabbit IgG control

cytochrome c (from UniProt P99999 1-105)
binding: binds
